{"sequences": {"note": "Protein sequences, listed by entry. Tags and fused reporters are not part of them. Lines headed by an entry give the natural chain unless they say otherwise; changes in a name come on top.", "UniProt Q9DBL9": "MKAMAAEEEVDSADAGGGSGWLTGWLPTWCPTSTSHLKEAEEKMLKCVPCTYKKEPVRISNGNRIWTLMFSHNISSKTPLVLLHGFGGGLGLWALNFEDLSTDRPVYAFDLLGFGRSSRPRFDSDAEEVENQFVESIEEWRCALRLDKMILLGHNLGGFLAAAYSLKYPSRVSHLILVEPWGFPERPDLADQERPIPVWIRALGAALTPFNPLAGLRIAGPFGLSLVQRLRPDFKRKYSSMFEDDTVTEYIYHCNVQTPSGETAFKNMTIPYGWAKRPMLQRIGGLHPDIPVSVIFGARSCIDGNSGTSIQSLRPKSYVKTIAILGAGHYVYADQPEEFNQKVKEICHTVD"}, "source": "paper PMC5314347", "key": {"[1]": {"target": "T1, PLIN1-luciferase(C) (perilipin 1) (UniProt Q8CGN5)", "T1 sequence": "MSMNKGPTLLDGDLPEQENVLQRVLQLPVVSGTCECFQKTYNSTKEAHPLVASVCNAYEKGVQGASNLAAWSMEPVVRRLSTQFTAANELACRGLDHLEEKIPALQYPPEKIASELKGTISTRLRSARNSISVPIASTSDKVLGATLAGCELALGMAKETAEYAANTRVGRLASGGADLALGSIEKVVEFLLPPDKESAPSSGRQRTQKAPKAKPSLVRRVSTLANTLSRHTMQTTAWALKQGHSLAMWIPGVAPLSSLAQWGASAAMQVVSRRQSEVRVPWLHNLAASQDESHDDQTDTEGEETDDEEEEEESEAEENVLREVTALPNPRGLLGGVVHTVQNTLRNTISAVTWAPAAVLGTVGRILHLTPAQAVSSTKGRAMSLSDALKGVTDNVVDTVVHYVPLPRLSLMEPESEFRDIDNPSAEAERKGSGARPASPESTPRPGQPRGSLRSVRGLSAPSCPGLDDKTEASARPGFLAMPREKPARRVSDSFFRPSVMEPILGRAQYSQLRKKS", "assay": "split reporter; protein complementation assay (PCA): protein-matched aliquots of lysates of HEK293 cells transfected with ABHD5 (or mutant)-luciferase(N) or PLIN1- or PLIN5-luciferase(C) incubated together with increasing half-log doses of ABHD5 ligand SR4995 for four hrs at room temperature; luminescence read after adding coelenterazine"}, "[2]": {"target": "T2, PLIN5-luciferase(C) (perilipin 5) (mouse) (UniProt Q8BVZ1)", "T2 sequence": "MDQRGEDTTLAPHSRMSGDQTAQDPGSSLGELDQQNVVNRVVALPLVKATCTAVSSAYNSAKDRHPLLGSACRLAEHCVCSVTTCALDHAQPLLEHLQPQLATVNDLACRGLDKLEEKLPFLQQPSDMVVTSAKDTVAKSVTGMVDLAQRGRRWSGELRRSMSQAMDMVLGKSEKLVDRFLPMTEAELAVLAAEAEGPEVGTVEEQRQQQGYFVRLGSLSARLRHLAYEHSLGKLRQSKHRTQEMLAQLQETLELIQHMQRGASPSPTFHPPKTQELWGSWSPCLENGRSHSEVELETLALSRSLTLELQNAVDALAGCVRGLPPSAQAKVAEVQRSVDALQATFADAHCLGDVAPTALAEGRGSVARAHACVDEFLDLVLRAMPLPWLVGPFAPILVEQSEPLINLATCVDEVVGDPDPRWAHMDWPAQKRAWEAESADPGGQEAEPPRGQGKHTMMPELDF", "assay": "split reporter; protein complementation assay (PCA): protein-matched aliquots of lysates of HEK293 cells transfected with ABHD5 (or mutant)-luciferase(N) or PLIN1- or PLIN5-luciferase(C) incubated together with increasing half-log doses of ABHD5 ligand SR4995 for four hrs at room temperature; luminescence read after adding coelenterazine"}}, "note": "Results are given in words; binding and its absence hold for the method and conditions named. Binding seen in cells or lysates may run through a third protein. Some results given as binding are weak or reduced against the parent protein; the word gives no strength. Where a sequence is shown, tags or fusion partners need not be part of it."}
{"substance": "ABHD5 G328S-luciferase(N) (from UniProt Q9DBL9 1-351)", "values": [{"measurement": "binding", "setting": "[1]", "value": "binds"}, {"measurement": "binding", "setting": "[2]", "value": "binds"}]}
{"substance": "ABHD5 R299N-luciferase(N) (from UniProt Q9DBL9 1-351)", "values": [{"measurement": "binding", "setting": "[1]", "value": "binds"}, {"measurement": "binding", "setting": "[2]", "value": "binds"}]}
{"substance": "ABHD5-luciferase(N) (alpha-beta hydrolase domain-containing 5, wild type) (from UniProt Q9DBL9 1-351)", "values": [{"measurement": "binding", "setting": "[1]", "value": "binds"}, {"measurement": "binding", "setting": "[2]", "value": "binds"}]}
